Assay results reported in paper PMC5653820.
Results are given in words; binding and its absence hold for the method and conditions named. Binding seen in cells or lysates may run through a third protein. Some binding calls cover weakened binding; strength is not graded here.

The chains behind the UniProt entries cited, without tags or fusion partners.
UniProt P61809: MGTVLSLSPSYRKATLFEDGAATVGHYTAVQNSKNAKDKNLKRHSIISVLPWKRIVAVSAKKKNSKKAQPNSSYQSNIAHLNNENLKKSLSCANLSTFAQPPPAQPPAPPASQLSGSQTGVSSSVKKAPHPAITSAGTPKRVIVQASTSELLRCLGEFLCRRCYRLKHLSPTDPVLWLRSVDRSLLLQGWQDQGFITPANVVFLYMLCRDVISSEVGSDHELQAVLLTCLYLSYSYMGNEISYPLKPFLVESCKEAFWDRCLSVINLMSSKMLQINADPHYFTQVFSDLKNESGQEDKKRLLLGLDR

Columns and labels:
Assay in all cases: co-IP; endogenous proteins in melanocyte lysate; primary antibody (anti-Cdk5; reciprocal: anti-p35 or anti-K10) overnight at 4 °C, protein G agarose beads 2 h at 4 °C; Western blot; IgG as negative control
[1] = target: T1, Keratin 10 (not stated (alpaca melanocytes in the results, mouse melanocytes in the methods)) (UniProt P02535)
T1 sequence: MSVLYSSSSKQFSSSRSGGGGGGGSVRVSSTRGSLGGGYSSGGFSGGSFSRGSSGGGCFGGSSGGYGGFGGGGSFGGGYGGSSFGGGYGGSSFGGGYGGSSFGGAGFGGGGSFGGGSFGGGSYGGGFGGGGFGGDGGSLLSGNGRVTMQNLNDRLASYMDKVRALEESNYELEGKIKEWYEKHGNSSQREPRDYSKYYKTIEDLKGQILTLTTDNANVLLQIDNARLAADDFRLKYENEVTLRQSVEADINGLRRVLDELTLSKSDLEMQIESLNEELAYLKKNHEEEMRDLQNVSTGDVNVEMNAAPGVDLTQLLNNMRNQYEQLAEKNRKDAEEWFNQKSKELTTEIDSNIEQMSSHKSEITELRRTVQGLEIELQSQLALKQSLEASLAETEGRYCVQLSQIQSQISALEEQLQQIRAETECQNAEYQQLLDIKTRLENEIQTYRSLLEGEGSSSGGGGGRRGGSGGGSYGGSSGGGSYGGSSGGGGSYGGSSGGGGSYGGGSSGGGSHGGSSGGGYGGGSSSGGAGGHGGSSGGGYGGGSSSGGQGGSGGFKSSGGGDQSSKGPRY

[2] = target: p35 (mouse) (mouse (endogenous in mouse melanocytes)) (UniProt P61809)
[3] = target: cyclin-dependent kinase 5 (mouse) (mouse (endogenous in mouse melanocytes)) (UniProt P49615)
[4] = target: cyclin-dependent kinase 5 (melanocytes of the K10 experiments) (not stated (alpaca melanocytes in the results, mouse melanocytes in the methods)) (UniProt P49615)

## cyclin-dependent kinase 5 (melanocytes of the K10 experiments) (from UniProt P49615 1-292) (enzyme)
[1]
  binding: binds

## cyclin-dependent kinase 5 (mouse) (from UniProt P49615 1-292) (enzyme)
[2]
  binding: binds

## p35 (mouse) (from UniProt P61809 1-307)
[3]
  binding: binds

B1: Keratin 10 (protein, UniProt P02535 1-570)
chain: T1 sequence
[4]
  binding: binds
